Four molecules from article PMC3447951 can be followed below.

The target in assay [1] is T1, HYM1 (two-hybrid fusion) (N. crassa) (UniProt Q1K4S9).
T1 sequence: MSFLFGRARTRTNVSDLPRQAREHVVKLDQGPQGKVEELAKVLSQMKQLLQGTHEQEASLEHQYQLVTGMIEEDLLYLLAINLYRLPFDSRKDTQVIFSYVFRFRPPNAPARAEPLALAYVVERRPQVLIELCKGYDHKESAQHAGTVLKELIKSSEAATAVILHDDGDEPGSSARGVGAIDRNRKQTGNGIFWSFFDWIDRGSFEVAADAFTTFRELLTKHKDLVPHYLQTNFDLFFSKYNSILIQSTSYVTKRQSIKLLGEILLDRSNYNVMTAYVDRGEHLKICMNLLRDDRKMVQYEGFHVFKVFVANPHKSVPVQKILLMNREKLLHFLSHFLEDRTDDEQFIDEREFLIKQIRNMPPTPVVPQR
Kind of assay: two-hybrid; Matchmaker Two-Hybrid system 3 (Clontech); pGBKT7 (GAL4 DNA-binding domain) and pGADT7 (GAL4 activation domain) fusions co-expressed in S. cerevisiae AH109; growth on SD medium lacking adenine, histidine, leucine and tryptophane.

The target of assay [2] is NRC1 (two-hybrid fusion) (N. crassa). The description is as above.

These are yes or no findings as the source states them, for the method shown. For some of these results: Binding calls can cover weak binding; strength is not graded here. Where a sequence is shown, tags or fusion partners need not be part of it.

Regarding “PAK kinase CLA4/NCU00406 (two-hybrid fusion) (N. crassa) (enzyme)”, the binding result in assay [1] was “no binding”.
Regarding “NRC1 (two-hybrid fusion) (N. crassa) (enzyme)”, the binding result in assay [1] was “no binding”.
Regarding “MEK2 (two-hybrid fusion) (N. crassa) (enzyme)”, the binding entry in assay [1] is listed as “no binding”.

B1: PAK kinase STE20/NCU03894 (two-hybrid fusion) (enzyme, UniProt Q7RZD3 1-954)
chain: MDGQLSLLSPTSSSSTSHSRKRLTKKQRPPSANHRTSSSFNVESLRIDAQSLDSKRSASSLRQGPNCNQSPSLARTVSVPVSVPSNAPAHTKASDLSLPRSHTTRSQSANRPYNPTQTIPTNRFILSPASSSQPQTQSPPYPSAVASTTVTSSRNKDTSKQYDPLDSCIGSFDQNKLSTDELIGAPFDGNAILSRIEATKLSAAPAPTSTTTIAHSNNISPRRVAPPPPPPPPALSRSNTDSKAARSSKPSKSPKSTISNKTMGASSFRHSASFSSAEQLPPSEKPSKSESSSSSNKRHSGDGKESRVPGMLRKKSGFSGFMNSLVGSPKKPLISAPENPVHVTHVGYDSNTGQFTGLPKEWQRLISESGITEKDRREHPQILVDVLTFYKETTEKPQEDQQLEKFHDARATDFRSPPVTGTAPLVLQTGVGYAHGPMSPMISPPASPRFPQVGHEGSFENPRAPPPVPKGPGPLPAKDINLIPSRPAPKPPAISTRPLVPPASLPAKDSGIGMPPPGDEAPMPYLPPKDNVQHMYQEEHRNRSRSNSRTNGAAPFSPVQASPLHPIATANQTAAYQQQLLQHQQEQAMAQAQAAMSGQLSRAASKRQQPTPPTSQHQHPRQPDINGAPRMPQTQGAAPQASARPRHRPRQSNAIDVVASLKRICSDGDPREIYRGFTKIGQGASGGVYTGHERGSNRLVAIKQMNLEQQPKKDLIINEILVMKESSHPNIVNFIDSYLCAGELWVVMEYMEGGSLTDVVTFNIMTEGQIASVCRETLRGLQHLHSKGVIHRDIKSDNILLSMEGNIKLTDFGFCATINEAQSKRTTMVGTPYWMAPEVVTRKEYGRKVDIWSLGIMAIEMIEGEPPYLTESPLRALWLIATNGTPHIKDEQSLSPVFRDFLYFALKVDPEKRASAHDLLRHDFMNKCVDLSTLAPLVRAAREARAQEKARKGQ
Turning to B1, in assay [2], the binding result is “binds”.
